± gives the standard deviation of the averaged measurements. Some of the results follow. Many values rest on one well or one pass, so single values are uncertain.
Test system: RAW 264.7 macrophages infected with S. aureus JE2-lux
Experiment: host macrophage viability (CellTiter-Fluor) relative to DMSO vehicle; higher = more viable host cells
Conditions: 10 µM; treatment time 4 h; gentamicin 50 µg/ml

| SMILES | host macrophage viability [%] |
| --- | --- |
| CC(=O)c1[nH]c(C)c(C(=O)NCCn2nc3c(C)cc4ccc(C)cc4n3c2=O)c1C | 114 |
| O=C(CSc1nnc2[nH]c(=O)ccn12)Nc1ccc(Br)cc1 | 105 |
| O=C(CSc1ncnc2c1oc1ccccc12)Nc1ccc([N+](=O)[O-])cc1 | 129 |
| O=C(NCC1COC2(CCCCC2)O1)Nc1ccc(Cl)cc1 (stereo not drawn) | 112 |
| O=C(NCCCN1CCCC1=O)c1ncoc1-c1ccc(F)cc1 | 109 |
| CCOc1ccc(-c2cc(C(=O)Nc3cc(C)on3)no2)cc1 | 122 |
| COc1cc(C(=O)Oc2coc(CSc3nc(C)cc(C)n3)cc2=O)c([N+](=O)[O-])cc1OC | 115 |
| Cc1cccc(OCCCN2C(=O)C(=O)c3cc(Br)cc(C)c32)c1 | 119 |
| O=C1NC(=O)c2cc(S(=O)(=O)N(CCO)CCO)cc3cccc1c23 | 112 |
| Cc1ccc(NC(=O)CN2C(=O)/C(=C\c3cccs3)SC2=S)cc1C | 107 |
| CC12CC(NC(=O)N1c1cccc(F)c1)c1cc([N+](=O)[O-])ccc1O2 (stereo not drawn) | 98.5 |
| COc1ccc(OC)c(NC(=O)CSc2nc3ccccc3c(=O)n2C)c1 | 118 |
| Cc1nn(-c2ccc3nncn3n2)c(C)c1Sc1nnc(N)s1 | 117 |
| O=C(CSc1nc(=O)n2ccccc2n1)N1CCc2ccccc21 | 121 |
| Cc1[nH]c2nc(CNc3ccccc3F)nn2c(=O)c1Cc1ccccc1 | 97.6 |
| O=[N+]([O-])c1ccc2sc(SCc3nc4ncccn4c3Br)nc2c1 | 115 |
| CCS(=O)(=O)c1ccccc1C(=O)Nc1ccc2nc(C)sc2c1 | 120 |
| O=C(Nc1nc2ccc3ccccc3c2s1)c1ccc(S(=O)(=O)N2CCc3ccccc32)cc1 | 118 ± 4.5 |
| Cc1cccc(N2CCN(c3nccnc3SCC(=O)Nc3ccccc3Cl)CC2)c1C | 118 |
| COC(=O)c1cc(Nc2nc(C)nc3sc4c(c23)CCC4)cc(C(=O)OC)c1 | 138 |
| Cc1ccc(Cc2nnc(SCC(=O)Nc3cccc(Cl)c3C)n(N)c2=O)cc1 | 97.9 |
| CCCCC(=O)Nc1cnc(N2CCN(c3ccccn3)CC2)c(C(=O)O)c1 | 87.6 |
| CCS(=O)(=O)N1CCCC(C(=O)NCC2CCCO2)C1 (stereo not drawn) | 98.1 |
| CCS(=O)(=O)N1CCC(Nc2nc3c(c(=O)[nH]2)CCCC3)CC1 | 112 |
| Cc1ccc(NC(=O)CSc2nc3cc(C)cc(C)c3cc2C#N)c(Br)c1 | 128 |
| CCn1c(C)cc2cc(NC(=O)c3cc(C4CC4)nn3C)ccc21 | 114 |

Shown with bars between the fields: 3 of the compounds above
SMILES | host macrophage viability [%]
CCOc1ccc(-c2cc(C(=O)Nc3cc(C)on3)no2)cc1 | 122
COc1cc(C(=O)Oc2coc(CSc3nc(C)cc(C)n3)cc2=O)c([N+](=O)[O-])cc1OC | 115
Cc1cccc(OCCCN2C(=O)C(=O)c3cc(Br)cc(C)c32)c1 | 119

Following part:

| SMILES | host macrophage viability [%] |
| --- | --- |
| COc1cc(C(=O)NNc2nc3c(OC)ccc(OC)c3s2)cc(OC)c1OC | 107 ± 4.3 |
| O=C(CSc1nc2sc3c(c2c(=O)n1Cc1ccco1)CCC3)Nc1nccs1 | 115 |
| O=C(OCCNC1=C(Cl)C(=O)c2ccccc2C1=O)c1ccccc1 | 101 |
| Cc1cc2oc(=O)cc(-c3cc4ccccc4o3)c2cc1OC(=O)C1CC1 | 131 |
| CCN1CCN(C(=O)C2CCN(C3=NS(=O)(=O)C(c4ccc(OC)cc4)=C3C)CC2)CC1 | 101 |
| COc1ccc(CCNc2ncnc3oc4c(c23)CCCC4)c(OC)c1 | 109 |
| CC(=O)c1ccc(OCC(O)CN2CCc3ccccc3C2)cc1 (stereo not drawn) | 116 |
| N#Cc1c(NC(=O)C2CC(=O)NN2Cc2ccccc2)sc2c1CCCC2 (stereo not drawn) | 116 |
| Cc1nnc2sc(SCC(=O)Nc3ccc(Cl)cc3)nn2c1=O | 113 |
| O=C(Oc1ccc2oc(=O)cc(-c3cc4ccccc4o3)c2c1)c1cccs1 | 113 |
| O=C(c1ccc2c(c1)OCO2)N1CCN(c2ccc(Nc3cccnc3)nn2)CC1 | 109 |
| Cc1cc(=O)[nH]c(SCc2ccc(C(=O)Nc3nccs3)cc2)n1 | 111 |
| O=C(CSC1=NS(=O)(=O)c2cc(F)ccc2N1)NCc1ccccc1Cl | 107 |
| CCc1nnc2ccc(C(=O)N3CCN(c4ccccn4)CC3)cn12 | 123 |
| Cn1c2ccccc2c2nnc(SCC(=O)Nc3ccc(NC(=O)C4CC4)cc3)nc21 | 110 |
| CCCCc1ccc(NC(=O)/C=C2\SC(=O)NC2=O)cc1 | 121 |
| CCOC(=O)c1c(SC(CC)C(=O)OC)nc(=O)[nH]c1C (stereo not drawn) | 121 |
| CCOC(=O)N1CCN(C(=O)Cn2c(=O)n(-c3ccccc3)c(=O)c3oc4ccccc4c32)CC1 | 121 |
| N#CC1=C(SCC(=O)N(c2ccccc2)c2ccccc2)NC2=C(C(=O)CCC2)C1c1ccco1 (stereo not drawn) | 115 |
| C=CCOc1ccc(C2NC(=O)c3c(sc4c3CCCC4)N2)cc1OC (stereo not drawn) | 110 |
| O=C(Cc1cc(=O)[nH]c(=O)[nH]1)NCCC(c1ccccc1)c1ccccc1 | 94.9 |
| Cc1nc(Cl)c2c(C)c(C)n(-c3ccccc3)c2n1 | 104 |
| CC(C)c1ccc2nc(SCC(=O)NCCc3c[nH]c4ccccc34)c(C#N)cc2c1 | 127 |
| COc1ccc(-c2ccc(=O)n(C[C@H](C)NC(=O)c3cnn4cccnc34)n2)cc1 | 112 |
| Cc1nc2cc(NC(=O)c3ccc(S(=O)(=O)N4CCC(C)CC4)cc3)ccc2s1 | 120 |
| CN(C(=O)c1cccc(NC(=O)C2OCOc3ccccc32)c1)C1CCCCC1 (stereo not drawn) | 102 |

| SMILES | host macrophage viability [%] |
| --- | --- |
| O=C(Cn1c(=O)n(CCC(=O)NC2CCCC2)c(=O)c2ccccc21)NCCC1=CCCCC1 | 116 |
| O=C(Nc1ccc(F)c(F)c1)c1ccc2nc[nH]c2c1 | 120 |
| O=C(COc1ccc(Cl)cc1)NCCSc1ncc(-c2ccc(F)cc2)[nH]1 | 116 |
| O=C(CSc1nnc2ccc(-c3cccnc3)nn12)NCc1ccco1 | 112 |
| COC(=O)Cn1/c(=N/C(=O)COc2ccc(Cl)cc2)sc2cc(NC(C)=O)ccc21 | 119 |
| CCN(CC)S(=O)(=O)c1ccc(C(=O)Oc2cc(C)[nH]c(=O)c2[N+](=O)[O-])cc1 | 119 |
| Fc1ccccc1Nc1nc(=S)[nH]c2ccccc12 | 119 |
| COc1cccc(C(=O)NCC(=O)N/N=C/c2ccc(Cl)cc2)c1 | 131 |
| Cc1ccc(NC(=O)CSC2CC(=O)N(c3ccc(C)cc3)C2=O)cc1 (stereo not drawn) | 130 |
| COCCn1c2ccccc2n2c(=O)n(Cc3cscn3)nc12 | 132 |
| COc1cccc(OCC(=O)N2CCC3(CC2)CC(=O)c2ccccc2O3)c1 | 113 |
| Cc1ccc(C)c(S(=O)(=O)c2cnc(SCC(=O)Nc3ccc(F)cc3F)[nH]c2=O)c1 | 133 |
| CSc1ncc(C(=O)NC(c2ccccc2)c2cccnc2)cn1 (stereo not drawn) | 113 |
| Cc1ccc(-c2nc(C(N)=O)c3[nH]c(=O)n(C(C)C)c3n2)cc1C | 112 |
| O=C(CN(C(=O)C(=O)Nc1ccc2c(c1)OCCO2)N1CCOCC1)NC1CCCC1 | 103 |
| COc1ccc(NC(c2ccccn2)c2oc(CO)cc(=O)c2O)cc1 (stereo not drawn) | 131 |
| COc1ccc2c(c1)c(=O)c(Br)c(C)n2CC(=O)Nc1cccc(C)c1 | 107 |
| Cc1cc(O)c(C(c2ccncc2)N2CCC(C)CC2)c(=O)n1Cc1ccco1 (stereo not drawn) | 111 |
| O=C(NCCc1ccc(Cl)cc1)C(=O)Nc1ccon1 | 100 |
| CC(C)(C)NC(=O)C(c1cccnc1)N(C(=O)c1csnn1)c1ccc(F)cc1 (stereo not drawn) | 110 |
| CC1CCN(C(=O)c2ccc(NC(=O)C(=O)Nc3ccc(F)c(Cl)c3)cc2)CC1 | 149 |
| CC(C)c1ccc(Cn2c(=O)c3sccc3n3c(=S)[nH]nc23)cc1 | 81.1 |
| Cc1ccc(-n2ncc(C(=O)NCCN3CCc4ccccc4C3)c2C2CCNCC2)c(C)c1 | 120 |
| O=C(/C=C\c1ccc([N+](=O)[O-])cc1)N(Cc1cccnc1)c1nc2c(F)cc(F)cc2s1 | 110 |
| COc1ccc(Cl)cc1Nc1ncnc2sc(C)c(S(=O)(=O)N3CCCCC3)c12 | 127 |
| O=C(NCC1COc2ccccc2O1)c1cc2c(=O)oc3ccccc3c2s1 (stereo not drawn) | 129 |

| SMILES | host macrophage viability [%] |
| --- | --- |
| Cc1ccc(C)c2sc(N(Cc3cccnc3)C(=O)Cc3ccc(F)cc3)nc12 | 105 |
| Cc1csc(NC(=O)CSc2nnc(-c3ccccn3)n2-c2ccc(Cl)cc2)n1 | 117 |
| O=C(NCc1ccccc1)NC1(C(=O)NCc2ccc3c(c2)OCO3)CCCCC1 | 115 |
| Cc1nn(C(C)CC(=O)NC(c2ccccc2)c2cccnc2)c(C)c1C (stereo not drawn) | 103 |
| Nc1ncnc(Sc2nc3ccccc3[nH]2)c1[N+](=O)[O-] | 107 |
| O=C(CSc1nc2ccccc2cc1CC1CCCC1)NCc1ccccc1 | 111 |
| CCOc1ccccc1Nc1nc(-c2nnc(-c3ccc(C)cc3)o2)nc2ccccc12 | 93.6 |
| COc1ccc(N2C(=O)c3nccnc3C2=O)cc1OC | 112 |
| Cc1sc(C)c(S(=O)(=O)N2CCc3ccccc3C2)c1-c1cc(C(F)(F)F)on1 | 93.9 |
| COc1ccc(NC(=O)Cn2cnc3c(cnn3-c3ccccc3)c2=O)cc1 | 102 |
| COc1ccc(S(=O)(=O)c2cn(CC(=O)Nc3cc(C)ccc3C)c3ccccc3c2=O)cc1 | 123 |
| CC(C)=CCSc1nc2sc3c(c2c(=O)[nH]1)CCCC3 | 104 |
| CCOc1ccccc1CNC(=O)c1c(-c2ccccc2)nnc2ccc(C)cc12 | 112 |
| Cc1nn(-c2ccccc2)c2c1C(c1ccc([N+](=O)[O-])cc1)C(C#N)=C(N)O2 (stereo not drawn) | 116 |
| Cn1cccc1-c1cc2n(n1)CCC(=O)N2CC(=O)NCc1cccnc1 | 118 |
| Cc1oc(-c2ccno2)cc1S(=O)(=O)NCc1ccc(Cl)cc1 | 118 |
| COCCNc1ncnc2c1c(C)c(C)n2-c1ccc(F)c(F)c1 | 112 |
| COc1ccc(-c2ccc(=O)n(CCNC(=O)COc3ccccc3)n2)cc1 | 116 |
| CC(C)CCN1C(=O)CCc2cc(NS(=O)(=O)c3ccc(F)c(Cl)c3)ccc21 | 115 |
| O=C(CC1Sc2ccc(C(F)(F)F)cc2NC1=O)Nc1ccc(OC(F)F)cc1 (stereo not drawn) | 116 |
| CCOCCCNC(=O)Cc1csc2nc(-c3ccc(F)cc3)cn12 | 118 |
| O=C(NCCCSc1nc2ccccc2s1)Nc1ncccn1 | 102 |
| CCCn1/c(=N/C(=O)c2c(F)cccc2F)sc2cc(S(C)(=O)=O)ccc21 | 113 |
| CC(=O)Nc1ccc(S(=O)(=O)Nc2ccc(-c3cn4ccc(C)nc4n3)cc2)cc1 | 140 |
| CCCCCC(=O)n1nc(-c2ccc(Cl)cc2)nc1N | 118 |

Reprinted from above, three compounds:

| SMILES | host macrophage viability [%] |
| --- | --- |
| Cn1cccc1-c1cc2n(n1)CCC(=O)N2CC(=O)NCc1cccnc1 | 118 |
| Cc1oc(-c2ccno2)cc1S(=O)(=O)NCc1ccc(Cl)cc1 | 118 |
| COCCNc1ncnc2c1c(C)c(C)n2-c1ccc(F)c(F)c1 | 112 |

From the supplement of paper PMC12578635
